Assay results: article PMC12380211
Results are given in words; binding and its absence hold for the method and conditions named. Binding seen in cells or lysates may run through a third protein. Some results given as binding are weak or reduced against the parent protein; the word gives no strength.

By UniProt entry, the sequences of proteins in these tests, tags left out. Residues count along the entry.
UniProt P13473, residues 29-410: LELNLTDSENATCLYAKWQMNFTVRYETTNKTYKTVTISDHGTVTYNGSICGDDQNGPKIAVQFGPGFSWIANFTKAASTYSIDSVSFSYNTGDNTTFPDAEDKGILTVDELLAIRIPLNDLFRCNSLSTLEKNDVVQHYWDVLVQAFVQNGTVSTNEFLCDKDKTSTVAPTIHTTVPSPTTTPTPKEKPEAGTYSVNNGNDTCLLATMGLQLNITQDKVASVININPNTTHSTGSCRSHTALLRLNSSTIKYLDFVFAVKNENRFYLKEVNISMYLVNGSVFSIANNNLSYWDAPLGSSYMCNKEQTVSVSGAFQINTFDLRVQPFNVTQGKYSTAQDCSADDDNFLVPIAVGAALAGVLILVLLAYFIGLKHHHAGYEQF

Target: lysosome-associated membrane protein type 2A (LAMP2A) (human (endogenous in HaCaT)) (UniProt P13473)
Experiment: co-IP; HaCaT cell lysate (IP Cell Lysis Solution), cells with or without AR7 (20.0 uM); primary antibody on protein G agarose overnight at 4 C (anti-LAMP2A is the antibody listed for CO-IP), five washes, Western blot; rabbit IgG as negative control

- binding: binds
B1: toll-like receptor 7 (TLR7) (receptor, UniProt Q9NYK1 27-1049)
chain: ARWFPKTLPCDVTLDVPKNHVIVDCTDKHLTEIPGGIPTNTTNLTLTINHIPDISPASFHRLDHLVEIDFRCNCVPIPLGSKNNMCIKRLQIKPRSFSGLTYLKSLYLDGNQLLEIPQGLPPSLQLLSLEANNIFSIRKENLTELANIEILYLGQNCYYRNPCYVSYSIEKDAFLNLTKLKVLSLKDNNVTAVPTVLPSTLTELYLYNNMIAKIQEDDFNNLNQLQILDLSGNCPRCYNAPFPCAPCKNNSPLQIPVNAFDALTELKVLRLHSNSLQHVPPRWFKNINKLQELDLSQNFLAKEIGDAKFLHFLPSLIQLDLSFNFELQVYRASMNLSQAFSSLKSLKILRIRGYVFKELKSFNLSPLHNLQNLEVLDLGTNFIKIANLSMFKQFKRLKVIDLSVNKISPSGDSSEVGFCSNARTSVESYEPQVLEQLHYFRYDKYARSCRFKNKEASFMSVNESCYKYGQTLDLSKNSIFFVKSSDFQHLSFLKCLNLSGNLISQTLNGSEFQPLAELRYLDFSNNRLDLLHSTAFEELHKLEVLDISSNSHYFQSEGITHMLNFTKNLKVLQKLMMNDNDISSSTSRTMESESLRTLEFRGNHLDVLWREGDNRYLQLFKNLLKLEELDISKNSLSFLPSGVFDGMPPNLKNLSLAKNGLKSFSWKKLQCLKNLETLDLSHNQLTTVPERLSNCSRSLKNLILKNNQIRSLTKYFLQDAFQLRYLDLSSNKIQMIQKTSFPENVLNNLKMLLLHHNRFLCTCDAVWFVWWVNHTEVTIPYLATDVTCVGPGAHKGQSVISLDLYTCELDLTNLILFSLSISVSLFLMVMMTASHLYFWDVWYIYHFCKAKIKGYQRLISPDCCYDAFIVYDTKDPAVTEWVLAELVAKLEDPREKHFNLCLEERDWLPGQPVLENLSQSIQLSKKTVFVMTDKYAKTENFKIAFYLSHQRLMDEKVDVIILIFLEKPFQKSKFLQLRKRLCGSSVLEWPTNPQAHPYFWQCLKNALATDNHVAYSQVFKETV
